Data as given in the supplement of paper PMC2577665.
± gives the standard deviation of the averaged measurements. Single values of this set are uncertain.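 In each well, ERalpha-negative HeLa cells were transfected with ERalpha, a reporter bearing two estrogen response elements, and one overexpressed, poorly characterized human cDNA. Genes reducing signal to the BRCA1 positive control level (roughly 0.6 of empty vector) or below were scored as repressor hits.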

System: ERE-luciferase reporter with exogenous ERalpha in HeLa cells
Test: relative ERE luciferase activity (Firefly/Renilla) upon cDNA overexpression, relative to empty vector (fold of empty vector); higher = stronger ERalpha transactivation (less repression)
Conditions: 17beta-estradiol: 10 nM; 12 h

Substance	relative ERE luciferase activity
MATEAPVNIAPPECSTVVSTAVDSLIWQPNSLNMHMIRPKSAKGRTRPSLQKSQGVEVCAHHIPSPPPAIPYELPSSQKPGACAPKSPNQGASDEIPELQQQVPTGASSSLNKYPVLPSINRKNLEEEAVETVAKKASSLQLSSIRALYQDETGTMKTSEEDSRARACAVERKFIVRTKKQGSSRAGNLEEPSDQEPRLLLAVRSPTGQRFVRHFRPTDDLQTIVAVAEQKNKTSYRHCSIETMEVPRRRFSDLTKSLQECRIPHKSVLGISLEDGEGWP [UBXD3]	1
MAALGHLAGEAAAAPGPGTPCASRGARLPGPVSSARNPSTVCLCPEQPTCSNADSRAHPLGDEGGTASKKQKNKKKTRNRASVANGGEKASEKLAPEEVPLSAEAQAQQLAQELAWCVEQLELGLKRQKPTPKQKEQAIGAIRTLRSKRTPLPRKRQLMHSLFGDYRAQMEAEWREALRALRAAAYSAQVQPVDGATRKKSQRVCRPRSIWRAKATLDMPDEEFRFNFF [C8orf33]	1.1
MAVPAKKRKMNFSEREVEIIVEELELKKHLLVNHFNAGVPLAAKSAAWHGILRRVNAVATCRRELPEVKKKWSDLKTEVRRKVAQVRAAVEGGEAPGPTEEDGAGGPGTGGGSGGGGPAVAPVLLTPMQQRICNLLGEATIISLPSTTEIHPVALGPSATAAAATVTLTQIPTETTYHTLEEGVVEYCTAEAPPPLPPETPVDMMAQHADTSVKPQALKSRIALNSAKLIQEQRVTNLHVKEIAQHLEQQNDLLQMIRRSQEVQACAQERQAQAMEGTQAALSVLIQVLRPMIKDFRRYLQSNTANPAPASDPGQVAQNGQPDSIIQ [C9orf90]	1.22
MDKLKKVLSGQDTEDRSGLSEVVEASSLSWSTRIKGFIACFAIGILCSLLGTVLLWVPRKGLHLFAVFYTFGNIASIGSTIFLMGPVKQLKRMFEPTRLIATIMVLLCFALTLCSAFWWHNKGLALIFCILQSLALTWYSLSFIPFARDAVKKCFAVCLA [SFT2D2]	1.11
MPLPDTMFCAQQIHIPPELPDILKQFTKAAIRTQPADVLRWSAGYFSALSRGDPLPVKDRMEMPTATQKTDTGLTQGLLKVLHKQCHHKRYVELTDLEQKWKNLCLPKEKFKALLQLDPCENKIKWINFLALGCSMLGGSLNTALKHLCEILTDDPEGGPARIPFKTFSYVYRYLARLDSDVSPLETESYLASLKENIDARKNGMIGLSDFFFPKRKLLESIENSEDVGH [ROPN1L]	0.832
CLIC2	1.17
MVKCCSAIGCASRCLPNSKLKGLTFHVFPTDENIKRKWVLAMKRLDVNAAGIWEPKKGDVLCSRHFKKTDFDRSAPNIKLKPGVIPSIFDSPYHLQGKREKLHCRKNFTLKTVPATNYNHHLVGASSCIEEFQSQFIFEHSYSVMDSPKKLKHKLDHVIGELEDTKESLRNVLDREKRFQKSLRKTIRELKDECLISQETANRLDTFCWDCCQESIEQDYIS [THAP6]	1.18 ± 0.24
TMEM55A	1.32
MHPFQWCNGCFCGLGLVSTNKSCSMPPISFQDLPLNIYMVIFGTGIFVFMLSLIFCCYFISKLRNQAQSERYGYKEVVLKGDAKKLQLYGQTCAVCLEDFKGKDELGVLPCQHAFHRKCLVKWLEVRCVCPMCNKPIASPSEATQNIGILLDELV [RNF122]	1.87
MAAYKLVLIRHGESAWNLENRFSGWYDADLSPAGHEEAKRGGQALRDAGYEFDICFTSVQKRAIRTLWTVLDAIDQMWLPVVRTWRLNERHYGGLTGLNKAETAAKHGEAQVKIWRRSYDVPPPPMEPDHPFYSNISKDRRYADLTEDQLPSCESLKDTIARALPFWNEEIVPQIKEGKRVLIAAHGNSLRGIVKHLEGLSEEAIMELNLPTGIPIVYELDKNLKPIKPMQFLGDEETVRKAMEAVAAQGKAKK [PGAM1]	1.01
MALCEAAGCGSALLWPRLLLFGDSITQFSFQQGGWGASLADRLVRKCDVLNRGFSGYNTRWAKIILPRLIRKGNSLDIPVAVTIFFGANDSALKDENPKQHIPLEEYAANLKSMVQYLKSVDIPENRVILITPTPLCETAWEEQCIIQGCKLNRLNSVVGEYANACLQVAQDCGTDVLDLWTLMQDSQDFSSYLSDGLHLSPKGNEFLFSHLWPLIEKKVSSLPLLLPYWRDVAEAKPELSLLGDGDH [IAH1]	0.788
MASLQRKGLQARILTSEEEEKLKRDQTLVSDFKQQKLEQEAQKNWDLFYKRNSTNFFKDRHWTTREFEELRSCREFEDQKLTMLEAGCGVGNCLFPLLEEDPNIFAYACDFSPRAIEYVKQNPLYDTERCKVFQCDLTKDDLLDHVPPESVDVVMLIFVLSAVHPDKMHLVLQNIYKVLKPGKSVLFRDYGLYDHAMLRFKASSKLGENFYVRQDGTRSYFFTDDFLAQLFMDTGYEEVVNEYVFRETVNKKEGLCVPRVFLQSKFLKPPKNPSPVVLGLDPKS [METTL6]	1.03
MPGPLTCTPAWQGQGRAAAFLCCSFQRAGAVVGVPARWHRGRLSSQQRLRSSLGGSHPCPQLGRRLVREGVISVPRQQGRRRCRESFSPADVAPGPICSANICLSGVRFLTCLNRVREHVVGPSPSPAAPICFFPVVEALCTLRGRRCHCLPFPKRGMQRWMLPLRRGARLLPLASSKNPRARSPGLDPLGSSETLWSHRGGH [C9orf163]	1.13
MRENVVVSNMERESGKPVAVVAVVTEPWFTQRYREYLQRQKLFDTQHRVEKMPDGSVALPVLGETLPEQHLQELRNRVAPGSPCMLTQLPDPVPSKRAQGCSPAQKLCLEVSRWVEGRGVKWSAELEADLPRSWQRHGNLLLLSEDCFQAKQWKNLGPELWETVALALGVQRLAKRGRVSPDGTRTPAVTLLLGDHGWVEHVDNGIRYKFDVTQCMFSFGNITEKLRVASLSCAGEVLVDLYAGIGYFTLPFLVHAGAAFVHACEWNPHAVVALRNNLEINGVADRCQIHFGDNRKLKLSNIADRVILGLIPSSEEGWPIACQVLRQDAGGILHIHQNVESFPGKNLQALGVSKVEKEHWLYPQQITTNQWKNGATRDSRGKMLSPATKPEWQRWAESAETRIATLLQQVHGKPWKTQILHIQPVKSYAPHVDHIVLDLECCPCPSVG [TRMT12]	1.17
MEGTVESQTPDLRDVEGKVGRKTPEGLLRGLRGECELGTSGALLLPGASSTGHDLGDKIMALKMELAYLRAIDVKILQQLVTLNEGIEAVRWLLEERGTLTSHCSSLTSSQYSLTGGSPGRSRRGSWDSLPDTSTTDRLDSVSIGSFLDTVAPSELDEQGPPGAPRSEMDWAKVIAGGERARTEVDVAATRLGSLRAVWKPPGERLQGGPPESPEDESAKLGFEAHWFWEQCQDDVTFL [C1orf190]	2.55
MAHRLQIRLLTWDVKDTLLRLRHPLGEAYATKARAHGLEVEPSALEQGFRQAYRAQSHSFPNYGLSHGLTSRQWWLDVVLQTFHLAGVQDAQAVAPIAEQLYKDFSHPCTWQVLDGAEDTLRECRTRGLRLAVISNFDRRLEGILGGLGLREHFDFVLTSEAAGWPKPDPRIFQEALRLAHMEPVVAAHVGDNYLCDYQGPRAVGMHSFLVVGPQALDPVVRDSVPKEHILPSLAHLLPALDCLEGSTPGL [HDHD3]	1.16
MAGLKRRASQVWPEEHGEQEHGLYSLHRMFDIVGTHLTHRDVRVLSFLFVDVIDDHERGLIRNGRDFLLALERQGRCDESNFRQVLQLLRIITRHDLLPYVTLKRRRAVCPDLVDKYLEETSIRYVTPRALSDPEPRPPQPSKTVPPHYPVVCCPTSGPQMCSKRPARGRATLGSQRKRRKSVTPDPKEKQTCDIRLRVRAEYCQHETALQGNVFSNKQDPLERQFERFNQANTILKSRDLGSIICDIKFSELTYLDAFWRDYINGSLLEALKGVFITDSLKQAVGHEAIKLLVNVDEEDYELGRQKLLRNLMLQALP [DEDD]	0.884
